Screen size: about 300,000 compounds; about 5,400 (1.8%) were called active. This list was built around the results that the source calls inconclusive (neither active nor inactive); the mix of calls is not that of the screen. Calls follow the shape of the full dose curve; tested in HEK293 cells. Potencies beside an inconclusive call are fits to weak or partial responses and may not hold up.
Test: qHTS for inhibitors of binding or entry into cells for Marburg Virus
Conditions: Marburg virus pseudotyped entry inhibition, cell reporter; activity change, negative = inhibition: at 37.8 µM (top of the series) unless noted
For `CSc1ccc(/C=C/c2nc3ccccc3n2S(=O)(=O)c2ccc(Br)cc2)cc1`, the Potency was inconclusive: 10 µM [inhibitor, partial curve, poor fit].
With `CCCc1cc(=O)[nH]c2nnc(SCC(=O)Nc3ccc4c(c3)OCCO4)n12` the Potency was inconclusive: 0.316 µM [inhibitor, partial curve, poor fit].
In the case of `O=C(OCCC1Oc2cccnc2NC1=O)c1ccc(F)cc1` (centres undefined), the Potency is reported as inconclusive: 17.8 µM [activator, single point].
In the case of `Cc1cc(=O)[nH]c(SCC(=O)NCCOc2ccccc2)n1`, the Potency is reported as inconclusive: 1.64 µM [inhibitor, partial curve].
For `COc1ccccc1NC(=O)CSc1nc(=O)n(Cc2ccncc2)c2c1CCCC2`, the “activity change, negative = inhibition” value was inactive: 25.6%.
With `CC1Cc2ccccc2N1C(=O)CN1C(=O)NC(C)(CCc2ccccc2)C1=O` (centres undefined) the “activity change, negative = inhibition” value was inactive: 10.2%.
For `O=C(CSc1nc2ccccc2n1CC(=O)N1CCCC1)NCc1ccc2c(c1)OCO2`, the Potency was inconclusive: 32.6 µM [inhibitor, single point].
With `CCOC(=O)c1cc(S(=O)(=O)NCCc2ccc(OC)c(OC)c2)cn1C` the “activity change, negative = inhibition” value was inactive: -2.37% [at 46.1 µM].
For `O=CN1N=C(c2ccccc2)CC1c1ccc(Cl)cc1` (centres undefined), the Potency was inconclusive: 2 µM [activator, partial curve, poor fit].
For `Cc1ccnc(NC(=O)CCC(=O)N(CC(=O)NCCc2ccccc2)c2ccccc2F)c1`, the “activity change, negative = inhibition” value was inactive: -1.43% [at 46.1 µM].
With `C=CCn1c(COc2ccc(Cl)cc2)nnc1SCC(=O)Nc1ccc(S(N)(=O)=O)cc1` the Potency was inconclusive: 0.355 µM [inhibitor, single point].
For `Cc1c(C(=O)O)cccc1-c1ccc(C=O)o1`, the Potency was inconclusive: 6.31 µM [activator, single point].
For `Cc1cccc(NC(=O)CSc2nc3ccc(N4C(=O)c5ccccc5C4=O)cc3s2)c1C`, the “activity change, negative = inhibition” value was inactive: -0.214%.
In the case of `Cc1ccc(C(=O)NCC(=O)NCC(=O)OCc2ccc(Cl)cc2)cc1`, the “activity change, negative = inhibition” value is reported as inactive: -13.8%.
In the case of `O=C(c1cccc(F)c1)N1CCN(c2cccc(C(F)(F)F)c2)CC1`, the Potency is reported as inconclusive: 0.82 µM [inhibitor, full curve].
With `COCCn1c(SCC(=O)NC(=O)NCc2ccccc2)nc2ccccc21` the Potency was inconclusive: 35.5 µM [inhibitor, single point].
For `O=C(/C=C/c1c[nH]c2ccccc12)c1c(O)n(CCc2ccccc2)c(=O)[nH]c1=O`, the “activity change, negative = inhibition” value was inactive: 4.39% [at 46.1 µM].
In the case of `CCCNC(=S)Nc1ccc(Br)cc1`, the “activity change, negative = inhibition” value is reported as inactive: 1.02%.
In the case of `CCCn1c(SCc2ccon2)nc2ccccc2c1=O`, the “activity change, negative = inhibition” value is reported as inactive: -1.15%.
In the case of `Cc1csc(NC(=O)c2nc3nccc(C)n3n2)n1`, the Potency is reported as inconclusive: 5.62 µM [activator, single point].
With `Cc1c(C(=O)NCc2cccnc2)oc2ccc(S(=O)(=O)N3CCCCCC3)cc12` the Potency was “inactive”.
In the case of `CC(C)c1ccc(NC(=S)N2CCCC(c3ccc(F)cc3)=N2)cc1`, the Potency is reported as active: 2.51 µM.
With `COc1cccc(NC(=O)CN(C)C(=O)c2ccccc2CCc2ccccc2)c1` the Potency was inconclusive: 5.62 µM [inhibitor, full curve].
With `CCCOc1c(Br)cc(C2C3=C(CCCC3=O)N(CC)C3=C2C(=O)CCC3)cc1OC` the Potency was inconclusive: 12.6 µM [inhibitor, partial curve, poor fit].
With `CSC(=N)N` the Potency was inconclusive: 3.16 µM [activator, full curve].
For `CCn1nnnc1NCc1ccc(OCc2ccc(F)cc2Cl)c(OC)c1`, the Potency was active: 10 µM.
In the case of `COc1ccc(CC(=O)NNc2ncnc3c2cnn3-c2ccc(C)cc2)cc1OC`, the Potency is reported as inconclusive: 2.24 µM [activator, partial curve, poor fit].
For `O=C(CCNS(=O)(=O)c1cccc2nsnc12)N1CCc2ccccc21`, the Potency was inconclusive: 5.62 µM [activator, single point].
For `Fc1ccc(Oc2nccc(-c3ccc(Cl)cc3)n2)cc1`, the “activity change, negative = inhibition” value was inactive: 20.8% [at 46.1 µM].
With `Cn1ccc2c(-c3ccc(C(F)(F)F)cc3)cc3c(c21)C1CCC3O1` (centres undefined) the Potency was inconclusive: 25 µM [inhibitor, partial curve, poor fit].
For `Cc1cccc(OCC(O)Cn2c(=N)n(CCN3CCOCC3)c3ccccc32)c1` (centres undefined), the Potency was inconclusive: 29.1 µM [inhibitor, single point].
In the case of `CCC1CN(C(=O)NCc2ccc(F)cc2)c2cc(Cl)ccc2O1` (centres undefined), the Potency is reported as inconclusive: 35.5 µM [inhibitor, single point].
In the case of `CCC1(C(=O)OC)NC(c2cccc(F)c2)C2C(=O)N(C)C(=O)C21` (centres undefined), the “activity change, negative = inhibition” value is reported as inactive: 19.9%.
With `CC(C)Cc1[nH]c(=O)c(C#N)c2c1COC(C)(C)C2` the Potency was inconclusive: 6.31 µM [inhibitor, single point].
With `COc1cc(NC(=O)C(C)Oc2ccccc2)ccc1NC(=O)COc1ccccc1` (centres undefined) the Potency was inconclusive: 15.8 µM [inhibitor, single point].
In the case of `CCOc1ccc(NC(=O)C2=C(C)C(=O)OC23CCC(C)CC3)cc1` (centres undefined), the “activity change, negative = inhibition” value is reported as inactive: -1.27% [at 46.1 µM].
With `CCc1ccc(-c2cc(C)no2)cc1S(=O)(=O)N1CCOc2ccccc21` the Potency was inconclusive: 10 µM [inhibitor, partial curve, poor fit].
For `C=CCn1cc(C(=O)NCc2ccc3c(c2)OCO3)c(=O)c2cc(S(=O)(=O)N(CC)CC)ccc21`, the Potency was inconclusive: 1.58 µM [inhibitor, partial curve, poor fit].
In the case of `Cc1ccc(NC(=O)Nc2c(C)n(C)n(-c3ccccc3)c2=O)c(Cl)c1`, the Potency is reported as inconclusive: 35.5 µM [inhibitor, single point].
In the case of `COCCCNC(=O)c1ccc(C(=O)NCCCOC)cc1`, the “activity change, negative = inhibition” value is reported as inactive: 12.3%.
In the case of `O=C(NCc1ccccn1)c1cc(-c2ccc(Br)cc2)nc2ccccc12`, the Potency is reported as inconclusive: 1.78 µM [activator, partial curve, poor fit].
With `COc1ccc(OC(=O)C2CC(=O)N(c3ccc(C)cc3)C2)cc1` (centres undefined) the “activity change, negative = inhibition” value was inactive: 29.5% [at 46.1 µM].
In the case of `Cc1ccc(C(=O)O)cc1S(=O)(=O)Nc1ccccc1C(=O)NC1CC1`, the Potency is reported as inconclusive: 35.5 µM [activator, single point].
In the case of `COc1ccc(Cl)cc1NC(=O)C[n+]1ccccc1`, the Potency is reported as inconclusive: 1 µM [inhibitor, single point].
With `O=c1c2ccccc2nc(-c2cccs2)n1-c1ccc2ccccc2c1` the Potency was inconclusive: 35.5 µM [activator, single point].
In the case of `COCc1nc2oc3ccc(F)cc3c(=O)c2cc1C(=O)OC`, the Potency is reported as inconclusive: 1.26 µM [activator, single point].
With `CCCS(=O)(=O)N1CCCC(C(=O)Oc2ccc(Cl)cc2)C1` (centres undefined) the Potency was inconclusive: 0.316 µM [inhibitor, partial curve, poor fit].
With `CCOc1ccccc1NC(=O)CSc1ccc(-c2ccco2)nn1` the “activity change, negative = inhibition” value was inactive: -28.2%.
With `CN(Cc1ccccc1)CC(O)CN(C)Cc1ccccc1` the Potency was inconclusive: 35.5 µM [inhibitor, single point].
With `CCCC(=O)Nc1nc(-c2ccc3c(c2)CCN3S(C)(=O)=O)cs1` the “activity change, negative = inhibition” value was inactive: -16.9%.
For `O=C(CSCc1nc2ccccc2[nH]1)N1CCN(c2cccc(Cl)c2)CC1`, the Potency was inconclusive: 18.3 µM [inhibitor, single point].
For `CCN(CC)CCNC(=O)c1nn(-c2ccc(C)cc2)c(=O)c2c1c1ccccc1n2C`, the Potency was inconclusive: 35.5 µM [inhibitor, single point].
For `COc1ccccc1CNC(=O)c1cc(-c2ccncc2)nc2c(Cl)cccc12`, the Potency was inconclusive: 35.5 µM [inhibitor, single point].
For `O=C(Nc1ccc(OCC(F)(F)C(F)F)c(C(F)(F)F)c1)c1ccccc1O`, the Potency was inconclusive: 35.5 µM [inhibitor, single point].
With `O=C(NCc1ccco1)c1ccc2c(=O)n(-c3ccccc3)c(=O)n(Cc3cccc(F)c3)c2c1` the “activity change, negative = inhibition” value was inactive: 32.8%.
With `CCOC(=O)c1ccc(N/C(=N/S(=O)(=O)c2ccccc2)c2ccccc2)cc1` the Potency was inconclusive: 0.231 µM [inhibitor, single point].
With `CCCCn1c(NCc2ccc3c(c2)OCO3)nc2ccccc21` the Potency was inconclusive: 14.1 µM [inhibitor, single point].
With `CCOC(=O)COc1cc(C)c(Cl)cc1C(=O)c1ccn2nc(-c3ccc(OC)cc3)cc2n1` the Potency was inconclusive: 2 µM [inhibitor, partial curve, poor fit].
For `CC1C(O)=C(c2nc3ccccc3[nH]2)C(=N)N1c1ccccc1` (centres undefined), the Potency was inconclusive: 29.1 µM [inhibitor, single point].
In the case of `COc1ccc(C(=O)Nc2ccnn2C2CCN(CCC(C)c3ccc(C)o3)CC2)cc1` (centres undefined), the Potency is reported as inconclusive: 35.5 µM [inhibitor, single point].
In the case of `O=C(CCNS(=O)(=O)c1ccc(Cl)cc1)NCc1cccs1`, the Potency is reported as inconclusive: 1.78 µM [inhibitor, partial curve, poor fit].
With `Fc1ccc(CNCc2ccccc2C(F)(F)F)cc1` the Potency was inconclusive: 0.112 µM [activator, full curve, poor fit].
In the case of `COc1ccc(/C=C/C(=O)Oc2cc(C)[nH]c(=O)c2[N+](=O)[O-])cc1OC`, the “activity change, negative = inhibition” value is reported as inactive: 7.32% [at 46.1 µM].
With `Oc1ccc(N=Nc2n[nH]c(-c3ccc(Br)cc3)n2)cc1` the Potency was inconclusive: 25.1 µM [inhibitor, partial curve, poor fit].
With `NC(=O)C1(N2CCCC2)CCN(Cc2ccccc2)CC1` the “activity change, negative = inhibition” value was inactive: -9.61%.
With `C=CCOc1ccc(CNCCc2ccc(S(N)(=O)=O)cc2)cc1` the Potency was inconclusive: 12.6 µM [inhibitor, single point].
For `CCCCCC1CCC(c2ccc(C(N)=O)cc2)CC1` (centres undefined), the Potency was inconclusive: 35.5 µM [activator, single point].
For `COc1cccc(NC(=S)N(CCc2c(C)[nH]c3ccccc23)Cc2cccs2)c1`, the Potency was inconclusive: 32.6 µM [inhibitor, partial curve, poor fit].
In the case of `CCOC(=O)C[n+]1ccc2c([nH]c3ccccc32)c1C`, the “activity change, negative = inhibition” value is reported as inactive: 6.23%.
% is scaled to controls: 0 for no effect and ±100 for the full control effect; potency is read from the fitted curve at half-maximal effect.
